Laboratory results published in patent US20230183355A1 (UNIVERSITY OF WESTERN ONTARIO, published 2023).
Results are given in words; binding and its absence hold for the method and conditions named. Some results given as binding are weak or reduced against the parent protein; the word gives no strength.

Sequences of proteins named here, by UniProt entry; tags and fusion partners are left off. A change or cut given only in a name is not applied to a line headed by its entry.
UniProt Q13349: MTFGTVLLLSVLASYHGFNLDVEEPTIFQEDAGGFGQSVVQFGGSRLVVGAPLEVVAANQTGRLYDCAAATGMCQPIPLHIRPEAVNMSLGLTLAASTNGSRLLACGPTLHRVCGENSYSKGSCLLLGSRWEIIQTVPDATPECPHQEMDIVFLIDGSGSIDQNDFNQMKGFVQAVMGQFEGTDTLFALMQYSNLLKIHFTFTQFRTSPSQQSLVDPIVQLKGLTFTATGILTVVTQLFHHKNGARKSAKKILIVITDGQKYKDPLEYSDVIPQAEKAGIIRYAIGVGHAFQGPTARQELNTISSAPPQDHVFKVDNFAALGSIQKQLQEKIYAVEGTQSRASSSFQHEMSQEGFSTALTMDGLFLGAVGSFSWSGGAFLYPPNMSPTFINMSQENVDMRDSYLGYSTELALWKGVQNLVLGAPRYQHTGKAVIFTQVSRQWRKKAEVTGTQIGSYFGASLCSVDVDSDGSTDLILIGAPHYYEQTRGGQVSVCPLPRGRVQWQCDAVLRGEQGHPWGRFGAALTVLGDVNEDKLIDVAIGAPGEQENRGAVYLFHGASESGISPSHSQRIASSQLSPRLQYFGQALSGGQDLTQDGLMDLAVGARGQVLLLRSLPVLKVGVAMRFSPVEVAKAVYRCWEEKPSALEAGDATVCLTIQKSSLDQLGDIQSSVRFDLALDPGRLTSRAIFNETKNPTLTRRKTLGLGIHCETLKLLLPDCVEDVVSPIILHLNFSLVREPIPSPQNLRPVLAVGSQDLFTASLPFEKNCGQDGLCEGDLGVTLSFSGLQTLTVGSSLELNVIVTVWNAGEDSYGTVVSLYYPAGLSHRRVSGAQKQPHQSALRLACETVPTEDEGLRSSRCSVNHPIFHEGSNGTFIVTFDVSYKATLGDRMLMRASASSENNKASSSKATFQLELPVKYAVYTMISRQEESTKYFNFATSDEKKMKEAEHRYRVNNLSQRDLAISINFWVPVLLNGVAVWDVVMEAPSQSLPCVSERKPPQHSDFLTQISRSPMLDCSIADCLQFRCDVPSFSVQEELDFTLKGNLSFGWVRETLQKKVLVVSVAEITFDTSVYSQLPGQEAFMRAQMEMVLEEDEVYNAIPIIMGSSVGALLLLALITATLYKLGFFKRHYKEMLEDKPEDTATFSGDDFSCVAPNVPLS

Biological target: T1, human CD11d/CD18 expressed on JY cells (human, UniProt Q13349 18-1161; P05107 23-769)
T1 construct: whole, on cells
Assay: FACS on JY cells expressing human CD11d/CD18

binding: binds
B1: Exemplified Antibody 2 (antibody, human IgG4 S228P, kappa, F234A L235A, V domains shown)
VH: QVQLVQSGAEVKKPGASVKVSCKASGYTFGDYNMHWVRQAPGQGLEWMGYIYPYNGDTGYNQNFKSRVTMTRDTSTSTVYMELSSLRSEDTAVYYCARGLVHYGYLNVAMDSWGQGTLVTVSS
VL: DIQMTQSPSSLSASVGDRVTITCRASRSIGTRIHWYQQKPGKAPKLLIYFASGSISGVPSRFSGSGSGTDFTLTISSLQPEDFATYYCQQSKIFPTTFGGGTKLEIKR
notes: Humanized antibody, full LC (kappa) and HC (IgG4)
